Measurements: paper PMC12624060, “Structures of human organellar SPFH protein complexes” (Nature Communications, 2025)
No constants are given. Whether binding was seen depends on the method and setting. For part of these data: Binding seen in cells or lysates may run through a third protein. Some entries that bind do so weakly or less than the wild type. For part of these data: Where a sequence is shown, tags or fusion partners need not be part of it.

Protein sequences, listed by entry. Tags and fused reporters are not part of them. Residues count along the entry.
UniProt O94905: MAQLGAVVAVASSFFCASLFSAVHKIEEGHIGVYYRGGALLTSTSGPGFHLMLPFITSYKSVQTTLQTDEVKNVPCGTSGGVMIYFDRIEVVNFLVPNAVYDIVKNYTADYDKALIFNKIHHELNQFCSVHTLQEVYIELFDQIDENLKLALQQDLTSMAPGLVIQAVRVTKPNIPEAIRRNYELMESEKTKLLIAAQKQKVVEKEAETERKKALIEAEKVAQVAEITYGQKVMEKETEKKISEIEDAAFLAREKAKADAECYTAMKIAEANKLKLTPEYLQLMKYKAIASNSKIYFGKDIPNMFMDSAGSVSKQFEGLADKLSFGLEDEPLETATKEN
UniProt Q9UQ90, residues 106-795: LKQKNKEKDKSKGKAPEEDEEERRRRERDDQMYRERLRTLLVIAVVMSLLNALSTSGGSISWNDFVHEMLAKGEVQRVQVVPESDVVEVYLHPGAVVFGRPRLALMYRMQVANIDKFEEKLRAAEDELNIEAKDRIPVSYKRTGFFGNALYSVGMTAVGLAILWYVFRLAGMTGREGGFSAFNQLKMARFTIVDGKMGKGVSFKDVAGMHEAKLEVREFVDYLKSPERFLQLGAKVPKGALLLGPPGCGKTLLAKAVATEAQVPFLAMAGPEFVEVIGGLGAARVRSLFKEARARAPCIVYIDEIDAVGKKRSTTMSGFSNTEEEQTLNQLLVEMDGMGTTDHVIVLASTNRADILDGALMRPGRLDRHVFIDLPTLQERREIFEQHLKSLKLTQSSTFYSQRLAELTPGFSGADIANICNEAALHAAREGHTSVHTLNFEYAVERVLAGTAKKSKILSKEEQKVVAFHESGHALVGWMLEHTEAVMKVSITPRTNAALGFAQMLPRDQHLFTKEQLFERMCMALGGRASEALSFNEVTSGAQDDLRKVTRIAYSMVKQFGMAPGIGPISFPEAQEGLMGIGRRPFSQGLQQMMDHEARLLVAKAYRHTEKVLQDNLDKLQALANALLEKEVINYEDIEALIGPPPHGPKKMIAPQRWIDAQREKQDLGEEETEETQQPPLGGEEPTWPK

Experiments:
[1] = target: Erlin2 (endogenous) (human (endogenous in HEK293T or Flp-In 293 T-REx)) (UniProt O94905); assay: native gel or EMSA; BN-PAGE (3-12% Bis-Tris) of 1% DDM lysates of wildtype, Erlin1 KO and Erlin2 KO cells, immunoblot of the endogenous proteins
[2] = target: T1, N-terminally Strep-tagged PHB1 (stable Expi293F line) (human) (UniProt P35232); assay: pull-down; StrepTactin purification of Strep-PHB1 (with PHB2) from DDM/CHS-solubilised Expi293F membranes, immunoblot of the eluate
T1 sequence: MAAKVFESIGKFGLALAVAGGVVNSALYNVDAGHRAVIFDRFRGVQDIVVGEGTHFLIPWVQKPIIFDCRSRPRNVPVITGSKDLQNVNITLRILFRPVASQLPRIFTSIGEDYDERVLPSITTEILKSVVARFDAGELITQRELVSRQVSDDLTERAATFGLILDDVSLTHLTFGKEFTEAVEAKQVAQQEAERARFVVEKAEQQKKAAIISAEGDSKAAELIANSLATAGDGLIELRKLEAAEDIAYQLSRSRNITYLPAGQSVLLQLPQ

[3] = target: Erlin1 (endogenous) (human (endogenous in HEK293T or Flp-In 293 T-REx)) (UniProt O75477); assay: native gel or EMSA; BN-PAGE (3-12% Bis-Tris) of 1% DDM lysates of wildtype, Erlin1 KO and Erlin2 KO cells, immunoblot of the endogenous proteins

**Q.** “Erlin2 (endogenous) (from UniProt O94905 1-339)” was tested. Which binding [1] did it give?
**A.** binds

**Q.** With “SPG7 (from UniProt Q9UQ90 106-795) (enzyme)” as the molecule, how does the binding [2] read?
**A.** binds weakly

B1: Erlin1 (endogenous) (protein, UniProt O75477 1-348)
chain: MNMTQARVLVAAVVGLVAVLLYASIHKIEEGHLAVYYRGGALLTSPSGPGYHIMLPFITTFRSVQTTLQTDEVKNVPCGTSGGVMIYIDRIEVVNMLAPYAVFDIVRNYTADYDKTLIFNKIHHELNQFCSAHTLQEVYIELFDQIDENLKQALQKDLNLMAPGLTIQAVRVTKPKIPEAIRRNFELMEAEKTKLLIAAQKQKVVEKEAETERKKAVIEAEKIAQVAKIRFQQKVMEKETEKRISEIEDAAFLAREKAKADAEYYAAHKYATSNKHKLTPEYLELKKYQAIASNSKIYFGSNIPNMFVDSSCALKYSDIRTGRESSLPSKEALEPSGENVIQNKESTG
**Q.** B1 was tested. Which binding [3] did it give?
**A.** binds
